In publication PMC11432330, “Novel Drug-like HsrA Inhibitors Exhibit Potent Narrow-Spectrum Antimicrobial Activities against Helicobacter pylori” (International Journal of Molecular Sciences, 2024):
Further values from the same series stand in other lists.

Test system: H. pylori 26695
Assay: In vivo inhibition of HsrA: RNA-Seq transcriptomic analysis of exposed cells
Type: cell-based, Helicobacter pylori
Procedure: Bacterial growth from three blood agar plates of H. pylori ATCC 700392 (aka 26695) incubated for 48 h at 37 °C under microaerobic conditions was aseptically resuspended in BHI + FBS and adjusted to 10^7 CFU/mL. BHI broth cultures were incubated microaerobically at 37 °C for 24 h. […] At this time, bacterial growth was stopped by adding 1.5 mL ice-cold RNA stop solution (95% absolute ethanol, 5% acid-buffered phenol) and subsequently incubated on ice. Control samples were exposed to the same amount of DMSO instead of the inhibitor. Helicobacter cells from all samples were harvested by centrifugation (4000 rpm at 4 °C for 10 min), then the pellets were quickly frozen by immersion in liquid nitrogen and stored at −80 °C.
RNA-Seq analysis was performed by GENEWIZ (Azenta Life Sciences, Leipzig, Germany). Frozen cell pellets from two biological replicates of each treatment condition were properly submitted to GENEWIZ in dry ice. RNA-Seq libraries were prepared according to standard protocols via rRNA depletion, RNA fragmentation and random priming, reverse transcription, 5’-phosphorylation and dA-tailing of cDNAs, adaptor ligation, and PCR enrichment. Once the quality of each library was confirmed, they were sequenced on an Illumina NovaSeq 6000 (Illumina, San Diego, CA, USA) with 150-bp paired-ends. Raw sequence reads were filtered to remove possible adapter sequences and nucleotides with poor quality using Trimmomatic v.0.36 [105]. The trimmed reads were subsequently mapped to the H. pylori strain 26695 reference genome NC_000915.1 available on NCBI, by using the Bowtie2 aligner v.2.2.6 [106]. Unique gene hit counts were calculated by using featureCounts from the Subread package v.1.5.2. Only unique reads that fell within the gene regions were counted. Using DESeq2 [108], a comparison of the gene expression between the control and treated groups of samples was performed. The Wald test was used to generate p-values and log2 fold changes. Genes with an adjusted p-value < 0.05 and absolute log2 fold change >1 were considered as differentially expressed genes (DEGs) for each comparison. The RNA-Seq data generated in this study have been deposited in ArrayExpress with the accession number E-MTAB-14255.

NC(=NOC(=O)Nc1ccc(Cl)cc1)c1csc([N+](=O)[O-])c1 [Ligand V, N′-{[(4-chloroanilino)carbonyl]}oxy-5-nitrothiophene-3-carboximidamide]
log2 Fold Change (gene HP1252, exposed to lethal concentrations vs control): -0.004
log2 Fold Change (gene HP1253, exposed to lethal concentrations vs control): 0.009
log2 Fold Change (gene HP1259, exposed to lethal concentrations vs control): -0.680
log2 Fold Change (gene HP1260, exposed to lethal concentrations vs control): 0.098
log2 Fold Change (gene HP1263, exposed to lethal concentrations of V vs control): 0.509
log2 Fold Change (gene HP1266, exposed to lethal concentrations vs control): -0.084
log2 Fold Change (gene HP1269, exposed to lethal concentrations vs control): -0.005
log2 Fold Change (gene HP1271, exposed to lethal concentrations vs control): -0.011
log2 Fold Change (gene HP1272, exposed to lethal concentration of V vs control): -0.954
log2 Fold Change (gene HP1273, exposed to lethal concentration of V vs control): -1.032
log2 Fold Change (gene HP1274, exposed to lethal concentration of V vs control): -1.184
log2 Fold Change (gene HP1276, exposed to lethal concentrations vs control): -0.659
log2 Fold Change (gene HP1278, exposed to lethal concentrations vs control): -0.035
log2 Fold Change (gene HP1281, exposed to lethal concentrations vs control): 0.060
log2 Fold Change (gene HP1282, exposed to lethal concentration of V vs control): -1.085
log2 Fold Change (gene HP1283, exposed to lethal concentrations vs control): -0.761
log2 Fold Change (gene HP1284, exposed to lethal concentrations vs control): 0.138
log2 Fold Change (gene HP1286, exposed to lethal concentration of V vs control): -1.941
log2 Fold Change (gene HP1288, exposed to lethal concentrations vs control): 1.125
log2 Fold Change (gene HP1289, exposed to lethal concentrations vs control): 1.217
log2 Fold Change (gene HP1290, exposed to lethal concentrations vs control): 1.199
log2 Fold Change (gene HP1291, exposed to lethal concentrations vs control): 2.138
log2 Fold Change (gene HP1295, exposed to lethal concentration of V vs control): -1.131
log2 Fold Change (gene HP1299, exposed to lethal concentration of V vs control): -1.027
log2 Fold Change (gene HP1321, exposed to lethal concentrations vs control): 1.797
log2 Fold Change (gene HP1324, exposed to lethal concentrations vs control): 1.131
log2 Fold Change (gene HP1326, exposed to lethal concentrations vs control): 1.036
log2 Fold Change (gene HP1327, exposed to lethal concentrations vs control): 1.200
log2 Fold Change (gene HP1328, exposed to lethal concentrations of V vs control): 0.773
log2 Fold Change (gene HP1329, exposed to lethal concentrations of V vs control): 0.841
log2 Fold Change (gene HP1330, exposed to lethal concentrations vs control): -0.835
log2 Fold Change (gene HP1332, exposed to lethal concentrations vs control): -0.793
log2 Fold Change (gene HP1333, exposed to lethal concentrations vs control): -0.026
log2 Fold Change (gene HP1334, exposed to lethal concentrations vs control): 1.060
log2 Fold Change (gene HP1336, exposed to lethal concentrations vs control): 0.059
log2 Fold Change (gene HP1338, exposed to lethal concentrations vs control): -0.723
log2 Fold Change (gene HP1339, exposed to lethal concentration of V vs control): -0.966
log2 Fold Change (gene HP1340, exposed to lethal concentrations vs control): -0.825
log2 Fold Change (gene HP1341, exposed to lethal concentration of V vs control): -1.103
log2 Fold Change (gene HP1342, exposed to lethal concentrations vs control): 1.657
log2 Fold Change (gene HP1344, exposed to lethal concentrations of V vs control): 0.858
log2 Fold Change (gene HP1347, exposed to lethal concentration of V vs control): -1.203
log2 Fold Change (gene HP1348, exposed to lethal concentration of V vs control): -1.162
log2 Fold Change (gene HP1349, exposed to lethal concentration of V vs control): -1.383
log2 Fold Change (gene HP1350, exposed to lethal concentrations vs control): -0.756
log2 Fold Change (gene HP1351, exposed to lethal concentrations vs control): 0.144
log2 Fold Change (gene HP1362, exposed to lethal concentrations of V vs control): 0.703
log2 Fold Change (gene HP1364, exposed to lethal concentrations vs control): -0.686
log2 Fold Change (gene HP1367, exposed to lethal concentrations of V vs control): 0.587
log2 Fold Change (gene HP1368, exposed to lethal concentrations vs control): 0.096
log2 Fold Change (gene HP1375, exposed to lethal concentrations vs control): -0.135
log2 Fold Change (gene HP1378, exposed to lethal concentration of V vs control): -0.930
log2 Fold Change (gene HP1379, exposed to lethal concentrations vs control): -0.625
log2 Fold Change (gene HP1382, exposed to lethal concentrations of V vs control): 0.908
log2 Fold Change (gene HP1383, exposed to lethal concentrations of V vs control): 0.490
log2 Fold Change (gene HP1384, exposed to lethal concentrations vs control): 0.139
log2 Fold Change (gene HP1386, exposed to lethal concentrations of V vs control): 0.843
log2 Fold Change (gene HP1387, exposed to lethal concentrations of V vs control): 0.841
log2 Fold Change (gene HP1387a, exposed to lethal concentrations vs control): -0.737
log2 Fold Change (gene HP1391, exposed to lethal concentrations vs control): 1.522
log2 Fold Change (gene HP1392, exposed to lethal concentrations vs control): -0.014
log2 Fold Change (gene HP1393, exposed to lethal concentrations of V vs control): 0.984
log2 Fold Change (gene HP1394, exposed to lethal concentrations of V vs control): 0.553
log2 Fold Change (gene HP1395, exposed to lethal concentrations vs control): 1.147
log2 Fold Change (gene HP1398, exposed to lethal concentrations vs control): 1.653
log2 Fold Change (gene HP1399, exposed to lethal concentrations vs control): 1.076
log2 Fold Change (gene HP1400, exposed to lethal concentrations vs control): 1.105
log2 Fold Change (gene HP1401, exposed to lethal concentrations vs control): 1.221
log2 Fold Change (gene HP1402, exposed to lethal concentrations vs control): 2.174
log2 Fold Change (gene HP1403, exposed to lethal concentrations vs control): 1.035
log2 Fold Change (gene HP1406, exposed to lethal concentrations vs control): -0.033
log2 Fold Change (gene HP1407, exposed to lethal concentrations vs control): -0.136
log2 Fold Change (gene HP1409, exposed to lethal concentrations vs control): 1.092
log2 Fold Change (gene HP1410, exposed to lethal concentrations of V vs control): 0.901
log2 Fold Change (gene HP1412, exposed to lethal concentrations vs control): 1.021
log2 Fold Change (gene HP1413, exposed to lethal concentrations of V vs control): 0.522
log2 Fold Change (gene HP1414, exposed to lethal concentration of V vs control): -0.929
log2 Fold Change (gene HP1416, exposed to lethal concentrations vs control): 0.014
log2 Fold Change (gene HP1421, exposed to lethal concentrations vs control): 0.042
log2 Fold Change (gene HP1423, exposed to lethal concentrations of V vs control): 0.519
log2 Fold Change (gene HP1424, exposed to lethal concentrations of V vs control): 0.901
log2 Fold Change (gene HP1428, exposed to lethal concentration of V vs control): -1.513
log2 Fold Change (gene HP1429, exposed to lethal concentration of V vs control): -0.877
log2 Fold Change (gene HP1430, exposed to lethal concentrations vs control): -0.817
log2 Fold Change (gene HP1437, exposed to lethal concentrations of V vs control): 0.812
log2 Fold Change (gene HP1440, exposed to lethal concentrations vs control): 1.446
log2 Fold Change (gene HP1441, exposed to lethal concentration of V vs control): -1.611
log2 Fold Change (gene HP1446, exposed to lethal concentrations vs control): -0.633
log2 Fold Change (gene HP1448, exposed to lethal concentration of V vs control): -1.547
log2 Fold Change (gene HP1449, exposed to lethal concentration of V vs control): -1.503
log2 Fold Change (gene HP1450, exposed to lethal concentration of V vs control): -1.895
log2 Fold Change (gene HP1451, exposed to lethal concentration of V vs control): -1.114
log2 Fold Change (gene HP1453, exposed to lethal concentrations vs control): 1.232
log2 Fold Change (gene HP1454, exposed to lethal concentrations of V vs control): 0.726
log2 Fold Change (gene HP1455, exposed to lethal concentrations of V vs control): 0.815
log2 Fold Change (gene HP1456, exposed to lethal concentrations vs control): 1.111
log2 Fold Change (gene HP1457, exposed to lethal concentrations of V vs control): 0.503
log2 Fold Change (gene HP1458, exposed to lethal concentrations of V vs control): 0.882
log2 Fold Change (gene HP1459, exposed to lethal concentrations of V vs control): 0.993
log2 Fold Change (gene HP1461, exposed to lethal concentrations vs control): 1.212
log2 Fold Change (gene HP1462, exposed to lethal concentration of V vs control): -1.027
log2 Fold Change (gene HP1463, exposed to lethal concentrations vs control): -0.722
log2 Fold Change (gene HP1465, exposed to lethal concentrations vs control): -0.043
log2 Fold Change (gene HP1468, exposed to lethal concentrations vs control): 1.467
log2 Fold Change (gene HP1471, exposed to lethal concentrations of V vs control): 0.610
log2 Fold Change (gene HP1472, exposed to lethal concentrations vs control): 0.099
log2 Fold Change (gene HP1476, exposed to lethal concentrations vs control): -0.863
log2 Fold Change (gene HP1478, exposed to lethal concentrations vs control): -0.870
log2 Fold Change (gene HP1479, exposed to lethal concentration of V vs control): -1.027
log2 Fold Change (gene HP1485, exposed to lethal concentration of V vs control): -1.732
log2 Fold Change (gene HP1486, exposed to lethal concentration of V vs control): -1.134
log2 Fold Change (gene HP1487, exposed to lethal concentrations vs control): -0.858
log2 Fold Change (gene HP1488, exposed to lethal concentration of V vs control): -1.185
log2 Fold Change (gene HP1489, exposed to lethal concentrations vs control): -0.678
log2 Fold Change (gene HP1490, exposed to lethal concentration of V vs control): -0.886
log2 Fold Change (gene HP1491, exposed to lethal concentrations of V vs control): 0.763
log2 Fold Change (gene HP1493, exposed to lethal concentrations vs control): -0.624
log2 Fold Change (gene HP1495, exposed to lethal concentrations vs control): -0.632
log2 Fold Change (gene HP1496, exposed to lethal concentration of V vs control): -1.607
log2 Fold Change (gene HP1497, exposed to lethal concentration of V vs control): -1.142
